Measurements: patent US9163066B2, “Antimicrobial lytic peptides” (priority 2010, dated 2015)
At least one peptide structure holds a part that was inferred or is arguable (an end, a ring closure or a residue). Residues, ends and D or L forms follow the SMILES beside them.

system: bacteria; assay: Antibacterial activity of the peptides, broth microdilution MIC, mean activity (Table II); format: cell-based; details: overnight incubation (18 to 24 h)
Method: Minimum Inhibitory Concentration or MIC for the purpose of this invention is the lowest concentration of an antimicrobial that will inhibit the visible growth of a microorganism after overnight incubation. Minimum inhibitory concentrations are important in diagnostic laboratories to confirm resistance of microorganisms to an antimicrobial agent and also to monitor the activity of new antimicrobial agents. A MIC is generally regarded as the most basic laboratory measurement of the activity of an antimicrobial agent against an organism. MBC is defined as the lowest concentration of an antimicrobial agent needed to kill 99.9% of the initial organism inoculum. Presently, specific guidelines for interpretation are not available; therefore, a clinician knowledgeable in both bactericidal testing and infectious diseases should be available to interpret the results.
MICs were determined by the broth microdilution method described by the National Committee for Clinical Laboratory Standards (17). Serial twofold dilutions of each peptide solution were prepared (final volume, […]) in microtiter trays with appropriate medium. Each dilution series included control wells containing bacteria without peptide. A total of […] of the adjusted inoculum (100,000 organisms) was added to each well, and then the trays were incubated at
in ambient air overnight (18 to 24 h). The MIC of each peptide for each isolate was read as the lowest concentration of peptide that inhibited visible growth of the organism.
The above in vitro tests and analyses were conducted on a set of designed peptides of the present invention; and, for comparative purposes, naturally derived molecules.

Row | Structure (SMILES) | Mean Activity
1 | CC[C@H](C)[C@H](NC(=O)CNC(=O)[C@H](CC(N)=O)NC(=O)[C@H](CCCNC(=N)N)NC(=O)[C@@H](NC(=O)[C@H](CC(N)=O)NC(=O)[C@H](CCCNC(=N)N)NC(=O)CNC(=O)[C@H](CCSC)NC(=O)[C@H](CCCCN)NC(=O)[C@H](CCC(=O)O)NC(=O)[C@@H](NC(=O)[C@H](CCCCN)NC(=O)[C@H](CCCCN)NC(=O)[C@H](Cc1ccccc1)NC(=O)[C@@H](NC(=O)[C@H](CCCCN)NC(=O)[C@H](Cc1c[nH]c2ccccc12)NC(=O)[C@@H](N)CCCCN)C(C)C)[C@@H](C)CC)[C@@H](C)CC)C(=O)N[C@H](C(=O)N[C@@H](CCCCN)C(=O)N[C@@H](C)C(=O)NCC(=O)N1CCC[C@H]1C(=O)N[C@@H](C)C(=O)N[C@H](C(=O)N[C@@H](C)C(=O)N[C@H](C(=O)N[C@@H](CC(C)C)C(=O)NCC(=O)N[C@@H](CCC(=O)O)C(=O)N[C@@H](C)C(=O)N[C@@H](CCCCN)C(=O)N[C@@H](C)C(=O)N[C@@H](CC(C)C)C(N)=O)C(C)C)[C@@H](C)CC)C(C)C [Cecropin B] (H-KWKVFKKIEKMGRNIRNGIVKAGPAIAVLGEAKAL-NH2) | 6.17 µM
2 | CC[C@H](C)[C@H](NC(=O)[C@H](CCCCN)NC(=O)[C@H](C)NC(=O)[C@H](CCCNC(=N)N)NC(=O)[C@H](CC(C)C)NC(=O)[C@H](CCCNC(=N)N)NC(=O)[C@@H](NC(=O)[C@H](CCCCN)NC(=O)[C@@H](NC(=O)[C@H](CCCCN)NC(=O)[C@H](C)NC(=O)[C@H](CCCNC(=N)N)NC(=O)[C@H](CC(C)C)NC(=O)[C@H](CCCCN)NC(=O)[C@@H](N)Cc1ccccc1)C(C)C)[C@@H](C)CC)C(=O)N[C@@H](CCCCN)C(=O)N[C@@H](CC(C)C)C(=O)O [AGM 155] (H-FKLRAKVKIRLRAKIKL-OH; N-terminus and C-terminus assumed) | 0.7 µM
3 | CC[C@H](C)[C@H](NC(=O)[C@H](CCCNC(=N)N)NC(=O)[C@H](CC(C)C)NC(=O)[C@H](CCCCN)NC(=O)[C@@H](NC(=O)[C@H](CCCCN)NC(=O)[C@H](C)NC(=O)[C@H](CCCNC(=N)N)NC(=O)[C@@H](NC(=O)[C@H](CCCNC(=N)N)NC(=O)[C@@H](N)Cc1ccccc1)[C@@H](C)CC)C(C)C)C(=O)N[C@@H](CCCNC(=N)N)C(=O)N[C@@H](C)C(=O)N[C@@H](CCCCN)C(=O)N[C@H](C(=O)N[C@@H](CCCNC(=N)N)C(=O)N[C@@H](CC(C)C)C(=O)O)C(C)C [AGM 178] (H-FRIRAKVKLRIRAKVRL-OH; N-terminus and C-terminus assumed) | 1 µM
4 | CC[C@H](C)[C@H](NC(=O)[C@H](CCCNC(=N)N)NC(=O)[C@H](C)NC(=O)[C@H](CCCCN)NC(=O)[C@@H](NC(=O)[C@H](CCCCN)NC(=O)[C@H](CC(C)C)NC(=O)[C@H](CCCNC(=N)N)NC(=O)[C@@H](NC(=O)[C@H](CCCNC(=N)N)NC(=O)[C@H](C)NC(=O)[C@H](CCCCN)NC(=O)[C@@H](NC(=O)[C@H](CCCNC(=N)N)NC(=O)[C@@H](N)Cc1ccccc1)C(C)C)[C@@H](C)CC)C(C)C)C(=O)N[C@@H](CCCNC(=N)N)C(=O)N[C@@H](CC(C)C)C(=O)O [AGM 179] (H-FRVKARIRLKVKARIRL-OH; N-terminus and C-terminus assumed) | 3 µM
5 | CC[C@H](C)[C@H](NC(=O)[C@H](CCCCN)NC(=O)[C@@H](NC(=O)[C@H](CCCNC(=N)N)NC(=O)[C@H](CC(C)C)NC(=O)[C@H](CCCNC(=N)N)NC(=O)[C@H](C)NC(=O)[C@H](CCCCN)NC(=O)[C@@H](NC(=O)[C@H](CCCCN)NC(=O)[C@@H](N)Cc1ccccc1)[C@@H](C)CC)C(C)C)C(=O)N[C@@H](CCCCN)C(=O)N[C@@H](C)C(=O)N[C@@H](CCCNC(=N)N)C(=O)N[C@@H](CC(C)C)C(=O)N[C@@H](CCCCN)C(=O)N[C@@H](CC(C)C)C(=O)O [AGM 176] (H-FKIKARLRVKIKARLKL-OH; N-terminus and C-terminus assumed) | 1 µM
